The values below come from EP4840855A1, “SULFONAMIDE DERIVATIVE, PREPARATION METHOD THEREFOR AND USE THEREOF” (dated 2026).

Chains of the proteins cited; added tags and fusions are not shown.
UniProt P17812, whole entry: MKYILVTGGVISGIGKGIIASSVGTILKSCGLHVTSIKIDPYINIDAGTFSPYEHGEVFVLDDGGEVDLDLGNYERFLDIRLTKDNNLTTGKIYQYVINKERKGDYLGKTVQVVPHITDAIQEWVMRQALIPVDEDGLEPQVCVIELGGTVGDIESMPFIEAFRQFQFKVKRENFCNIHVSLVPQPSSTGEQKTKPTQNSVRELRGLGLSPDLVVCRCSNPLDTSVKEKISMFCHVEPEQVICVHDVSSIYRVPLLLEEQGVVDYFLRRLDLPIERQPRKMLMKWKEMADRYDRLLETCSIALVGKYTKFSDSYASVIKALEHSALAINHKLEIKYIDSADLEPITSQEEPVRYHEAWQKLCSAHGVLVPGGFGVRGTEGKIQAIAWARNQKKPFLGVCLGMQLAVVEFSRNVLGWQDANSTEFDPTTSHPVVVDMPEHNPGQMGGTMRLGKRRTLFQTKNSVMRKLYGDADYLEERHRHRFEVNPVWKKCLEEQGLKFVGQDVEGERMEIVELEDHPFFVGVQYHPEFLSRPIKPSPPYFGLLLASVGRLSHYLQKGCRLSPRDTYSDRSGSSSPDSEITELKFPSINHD

Molecules are shown by their SMILES. The structures given here were assigned with low confidence; some may be wrong.

Series [1] has as its system Jurkat (Clone E6-1) cells. Description: Inhibition on Jurkat cell proliferation (CellTiter-Glo cell viability). Conditions: 72 hours culture. As for the experimental part: The following method was used to determine the effect of the compounds of the present disclosure on Jurkat cell proliferation. Jurkat (Clone E6-1) cells were purchased from the Cell Resource Center of Shanghai Institutes for Biological Sciences, Chinese Academy of Sciences, and were cultured in RPMI 1640 medium containing 10% fetal bovine serum, 100 U penicillin, and 100 µg/mL streptomycin. Cell viability was measured using a CellTiter-Glo® Luminescent Cell Viability Assay kit (Promega, catalog number G7573).
The experiment was performed according to the kit's manual, briefly summarized as follows: test compounds were first dissolved in DMSO to prepare 10 mM stock solutions, which were then diluted with medium to prepare test samples. The final concentration range of the compounds was from 10000 nM to 1.52 nM. Cells in the logarithmic growth phase were seeded into a 96-well cell culture plate at a density of 1000 cells per well, and test compounds were added. The cells were cultured in a 37°C CO2 incubator for 72 hours. After culturing, 50 µL of CellTiter-Glo detection reagent was added to each well, the plate was shaken for 5 minutes, and allowed to stand for 10 minutes. The luminescence of each well was then measured using a microplate reader in Luminescence mode. The percentage inhibition at each concentration point was calculated by comparison with the control group (0.1% DMSO). Nonlinear regression analysis of compound concentration logarithm versus inhibition rate was performed using GraphPad Prism 9 software to obtain the IC50 values of the compounds for inhibiting cell proliferation, as shown in Table 1. Table 1 IC50 Data for Inhibition on Jurkat Cell Proliferation by the Compounds of the Present Disclosure
In general terms: Cellular ATP, detected with luciferase, serves as a proxy for viable cell number.

In series [2] the target is human cytidine triphosphate synthase 1 (hCTPS1) (Homo sapiens, UniProt P17812). Briefly: Inhibition on hCTPS1 enzyme activity (ADP-Glo Kinase Assay). To be noted: 40 nM hCTPS1, 120 µM ATP, 160 µM UTP, 60 µM GTP, 100 µM L-Glutamine, 120 minutes. As for the experimental part: The following method was used to determine the degree of inhibition on human cytidine triphosphate synthase 1 (hCTPS1) enzyme activity by the compounds of the present disclosure in vitro. ADP-Glo™ Kinase Assay kit (catalog number V9102) from Promega was used in this method. The kit's manual may be referred for a detailed experimental procedure.
The experimental procedure was briefly described as follows: The reaction was performed in a buffer containing 50 mM 4-hydroxyethylpiperazineethanesulfonic acid (HEPES), 10 mM magnesium chloride, 5 mM potassium chloride, 0.01% Pluronic F127, and 4 mM dithiothreitol in a 384-well plate. First, 100 nL of gradient-diluted compound was transferred to the 384-well plate via a nanoliter acoustic liquid transfer system (manufacturer: Labcyte; catalog number: Echo 655), and 2.5 µL of buffer containing hCTPS1 was added, followed by incubation in a 25°C incubator for 10 minutes. Then 2.5 µL of buffer containing ATP and UTP was added, followed by incubation in a 25°C incubator for 10 minutes. […] Then 20 µL of Kinase Detection Reagent was added, and after 1 hour, the chemiluminescence value was recorded on a Microbeta microplate reader (manufacturer: PerkinElmer; catalog number: Envision). The percentage inhibition rates of the compounds at each concentration were calculated by comparing the chemiluminescence intensity ratio with a control group (0.1% DMSO). […]
On the technique in general: ADP-Glo first removes unused ATP, then detects ADP through luciferase.

A short description of series [3]: Pharmacokinetic testing in mice (plasma concentration by LC-MS/MS). To be noted: ICR mice, male, Oral (10 mg/kg), fasted overnight. As for the experimental part: ICR mice were used as test animals. Plasma concentrations of the test compounds at different time points were measured by LC/MS/MS after intragastrical administration of the reference compound STP-B and the compounds of the present disclosure, and the pharmacokinetic characteristics of the compounds of the present disclosure in mice were studied.
ICR mice, male, 30.8 to 38.0 g, purchased from Vital River Laboratory Animal Technology Co., Ltd.
An appropriate amount of the test compound was weighed, and an appropriate amount of DMA (N,N-dimethylacetamide), 30% Solutol HS15 (30% polyethylene glycol-15 hydroxystearate), and saline were added sequentially, mixed by ultrasonication and vortexing to prepare a 1 mg/mL dosing formulation. The ratio of DMA:30% Solutol HS15:saline was 10:10:80 (v/v/v).
ICR mice in each test compound injection group (9 mice per group) were fasted overnight and then administered intragastrically (PO, compound dose was 10 mg/kg, dosing volume was 10 mL/kg), and fed 4 hours after dosing.
About 0.1 mL of blood was collected from the orbit before dosing and at 0.25 h, 0.5 h, 1 h, 2 h, 4 h, 8 h, 10 h, and 24 h after dosing, and whole blood samples were placed in anticoagulant tubes containing EDTA-K2. […]
The content of test compounds in mouse plasma after intragastrical administration was determined by LC-MS/MS.

As for `O=C(Nc1ccc(-c2cnn3ccc(Cl)cc23)cc1)C1(c2cc(NS(=O)(=O)C3CC3)ccn2)CC2CC2C1` (stereo not drawn), the half-inhibitory concentration (IC50) (usually the concentration needed to halve the response being measured) in series [1] came out at 12.9 nM.

For the compound `CCOc1cncc(-c2ccc(NC(=O)C3(c4nccc(NS(=O)(=O)C5CC5)n4)CC4CC4C3)c(OC)c2)n1` (stereo not drawn), the IC50 in series [1] turned out to be 8.73 nM; in series [2] it was 10.7 nM. Moreover, in series [3], the “Half-life T1/2” value came out at 2.8 h. The “Plasma concentration Cmax” value in series [3] came out at 28700 ng/mL.

In series [1], `CCOc1cncc(-c2ccc(NC(=O)C3(c4cc(NS(=O)(=O)C5CC5)ncn4)CC4CC4C3)c(OC)c2)n1` (stereo not drawn) came in with an IC50 of 4.48 nM.
